Experimental data as given in paper PMC9120067.

Biological target: T1, His6-ExpR (Sinorhizobium meliloti) (UniProt Q2HY11)
T1 sequence (looked up, limits assumed): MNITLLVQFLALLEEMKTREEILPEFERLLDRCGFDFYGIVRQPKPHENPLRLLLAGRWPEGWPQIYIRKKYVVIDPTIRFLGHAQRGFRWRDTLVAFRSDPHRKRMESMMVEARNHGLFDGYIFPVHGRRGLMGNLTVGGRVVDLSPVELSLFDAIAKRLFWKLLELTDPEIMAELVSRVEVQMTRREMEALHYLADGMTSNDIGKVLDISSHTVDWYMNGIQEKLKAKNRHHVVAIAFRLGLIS
Assay: EMSA
Settings: 1 uM His-ExpR, 10 uM 3-oxo-C16:1-HSL, shift implied by supershift with SinR, 20 mM HEPES-Na pH 7.5, 200 mM NaCl, 50 mM KCl, 20 mM MgCl2, 1 ug/ul BSA, 0.0025 U/ul sonicated sperm DNA, 0.1% DMSO, 2.75 nM DNA, recombinant protein, protein details: His6, label: Cy3 at 5' end of forward primer 264f, probe letters rebuilt from the primers and the genome

“CGTGATTACGCGATGTAGCGATGCTGTCAGGCTCGGATGACACATGTAACTGTCTATAGTGACAGTTTATTTCCTCATTTTTTCCCAATAGATTTGTGGGGGAATCTGCGGGTGGCCGGTCCTGTCCCGGGCCGGCAACCCGTCAGATGGTGGGGATCAGAGCATGTCGAACAGCGT (double strand) [sinI promoter 177 bp fragment]”: binds.

The exact form of at least one protein or probe is not confirmed. At least one verdict rests on a figure or table, not on a statement of the authors. Tags and fusion partners may be left off the protein sequences shown.
